Here are results for one substance from paper PMC9927933.

By UniProt entry, the sequences of proteins in these tests, tags left out.
UniProt Q9UM11: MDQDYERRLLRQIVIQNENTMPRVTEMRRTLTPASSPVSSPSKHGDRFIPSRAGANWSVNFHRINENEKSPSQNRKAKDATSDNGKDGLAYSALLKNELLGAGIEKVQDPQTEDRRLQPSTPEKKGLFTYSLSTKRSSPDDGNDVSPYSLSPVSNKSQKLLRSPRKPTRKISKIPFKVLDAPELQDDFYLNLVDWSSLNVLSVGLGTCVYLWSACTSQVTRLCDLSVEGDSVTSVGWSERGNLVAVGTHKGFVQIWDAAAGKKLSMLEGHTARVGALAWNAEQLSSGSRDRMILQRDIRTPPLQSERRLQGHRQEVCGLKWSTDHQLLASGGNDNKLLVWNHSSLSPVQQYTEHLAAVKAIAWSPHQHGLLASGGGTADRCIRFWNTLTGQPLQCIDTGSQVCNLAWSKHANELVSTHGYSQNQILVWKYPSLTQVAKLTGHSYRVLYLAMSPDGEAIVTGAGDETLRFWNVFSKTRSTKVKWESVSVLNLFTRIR
UniProt Q8TB45: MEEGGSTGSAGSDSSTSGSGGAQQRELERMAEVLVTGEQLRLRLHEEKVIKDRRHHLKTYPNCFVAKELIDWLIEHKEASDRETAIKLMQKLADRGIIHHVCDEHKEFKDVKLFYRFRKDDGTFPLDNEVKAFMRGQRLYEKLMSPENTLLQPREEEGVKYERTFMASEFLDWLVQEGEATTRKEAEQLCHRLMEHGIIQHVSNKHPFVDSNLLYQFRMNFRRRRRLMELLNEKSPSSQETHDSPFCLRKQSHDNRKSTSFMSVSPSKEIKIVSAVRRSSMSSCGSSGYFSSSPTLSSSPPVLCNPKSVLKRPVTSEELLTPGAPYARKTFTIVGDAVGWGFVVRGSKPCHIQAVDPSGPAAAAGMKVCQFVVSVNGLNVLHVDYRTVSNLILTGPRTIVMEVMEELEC

Results are given in words; binding and its absence hold for the method and conditions named. Binding seen in cells or lysates may run through a third protein. Some results given as binding are weak or reduced against the parent protein; the word gives no strength.

For assay [1], the target named is CDH1 (UniProt Q9UM11). Put plainly: co-IP; HEK293 cells transfected with indicated plasmids, pulled down with anti-FLAG beads, immunoblot (Figure 5E); IP lysis buffer 50 mM Tris-HCl pH 8.0, 120 mM NaCl, 1% Triton X-100, 1 mM EDTA, overnight at 4°C. (In western blotting, separated proteins are transferred to a membrane and probed.)
Assay [2] addresses CDH1 (UniProt Q9UM11). Put plainly: co-IP; reciprocal immunoprecipitation (Supplemental Figure 5A); cells and constructs not given; general co-IP method: 1-2 mg lysate in IP lysis buffer (50 mM Tris-HCl pH 8.0, 120 mM NaCl, 1% Triton X-100, 1 mM EDTA), overnight at 4°C, 5 washes, immunoblot.

Consider “DEP domain-containing mechanistic target of rapamycin (mTOR) interacting protein (DEPTOR) (from UniProt Q8TB45 1-409)”, for which the binding result with CDH1 [1] and in the assay with CDH1 [2] was “binds” in each case.
